In all, about 1,600 compounds were measured (“plate-normalized OD600 growth (mean of duplicates)”: median about 0.31, lowest 2% from about 0.23 on). The list shows a part of the results.
Test system: Escherichia coli BW25113
Assay: plate-normalized OD600 growth (mean of duplicates) (OD600 (normalized)); higher = more growth (less inhibition)
Settings: 10 µM
Experimental: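 E. coli BW25113 in LB (100 µl, 96-well, no shaking) was exposed to 10 µM of each compound (here the ChemBridge subset of a ~30,000-member library) and grown at 37°C for 24 h or 15°C for 48 h, in duplicate. Growth was read as OD600 and the duplicate ODs were normalized across screening plates to correct plate-to-plate variation.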

Row | SMILES | plate-normalized OD600 growth (temperature: 15°C, 48 h) | plate-normalized OD600 growth (temperature: 37°C, 24 h)
1 | COc1ccc(N2CCN(Cc3ccc(C)o3)CC2)cc1 | 0.253 | 0.596
2 | c1ccc2c(c1)CCN(Cc1ccncc1)C2 | 0.236 | 0.651
3 | Cc1ccc(C(=O)Nc2cc(C)c(O)cc2C)cc1 | 0.252 | 0.613
4 | CCN1CCN(C/C=C/c2ccccc2)CC1 | 0.28 | 0.634
5 | CCc1nnc(NC(=O)CCc2ccccc2)s1 | 0.235 | 0.605
6 | O=C1CCCc2occ(-c3ccc([N+](=O)[O-])cc3)c21 | 0.253 | 0.634
7 | Cc1nc(-c2ccccc2)cc(N2CCCC2)n1 | 0.253 | 0.616
8 | COc1ccc(OC)c(NC(=O)CCN2CCCC(C)C2)c1 (configuration not stated) | 0.257 | 0.614
9 | COc1ccccc1N1CCN(Cc2ccsc2)CC1 | 0.256 | 0.609
10 | COc1ccc(NC(=O)C2CC(=O)N(c3ccccc3C)C2)cc1 (configuration not stated) | 0.267 | 0.611
11 | N#Cc1c(-c2ccc([N+](=O)[O-])cc2)cc(-c2ccccc2)nc1N | 0.244 | 0.631
12 | C=CCn1c(SCCC)nc(O)cc1=O | 0.268 | 0.655
13 | O=C(Nc1ccccc1NC(=O)c1ccco1)c1ccco1 | 0.245 | 0.609
14 | NC(=O)C1CCCN(Cc2ccccc2F)C1 (configuration not stated) | 0.249 | 0.65
15 | c1ccc(NC2=Nc3ccccc3CC2)cc1 | 0.277 | 0.627
16 | c1cncc(CNc2ccc3c(c2)CCC3)c1 | 0.257 | 0.648
17 | N#CC1=C(N)SC(N)=C(C#N)C1Cc1ccccc1 | 0.259 | 0.643
18 | CN(C)CCOC(=O)NC12CC3CC(CC(C3)C1)C2 | 0.247 | 0.591
19 | O=S1(=O)CC(O)C(S(=O)(=O)c2ccccc2)C1 (configuration not stated) | 0.241 | 0.596
20 | OCC(O)CSc1nc2ccccc2[nH]1 (configuration not stated) | 0.236 | 0.608
21 | Cn1c2ccccc2c2nc3ccc([N+](=O)[O-])cc3cc21 | 0.249 | 0.639
22 | N#Cc1cc([N+](=O)[O-])cnc1NCCO | 0.242 | 0.622
23 | Cc1cccc(N2CCN(C(=O)c3ccc([N+](=O)[O-])cc3Cl)CC2)c1C | 0.26 | 0.631

Row | SMILES | plate-normalized OD600 growth (temperature: 15°C, 48 h) | plate-normalized OD600 growth (temperature: 37°C, 24 h)
24 | N#CC1=C(SCC(=O)Nc2ccc(Br)cc2)NC(=O)C(C#N)C12CCCCC2 (configuration not stated) | 0.257 | 0.604
25 | COC(C(=O)Nc1ccc([N+](=O)[O-])cc1)c1ccccc1 (configuration not stated) | 0.261 | 0.63
26 | CCc1ccc(-c2csc(Nc3cccc(OC)c3)n2)cc1 | 0.222 | 0.604
27 | OCCCc1cn(Cc2ccccc2)c2ccccc12 | 0.245 | 0.643
28 | CCCSc1nc(O)cc(=O)n1C | 0.261 | 0.622
29 | CCN(C(=O)Cc1ccccc1)C1CCCCC1 | 0.221 | 0.606
30 | O=C(O)CCCC(=O)Nc1cccc(Cl)c1Cl | 0.254 | 0.622
31 | Cc1cc(=O)[nH]c(SCC(=O)Nc2ccc(Br)cc2)c1C#N | 0.214 | 0.594
32 | O=C1CCCc2c1nc(-c1ccccc1)n2O | 0.272 | 0.662
33 | CC(=O)N1Cc2ccccc2C(C)CC12CCCC2 (configuration not stated) | 0.272 | 0.632
34 | COc1ccc(/C=C(/C#N)c2nc(-c3ccc(Br)cc3)cs2)cc1OC | 0.278 | 0.657
35 | O=C(Nc1ccccc1)c1ccc(O)c([N+](=O)[O-])c1 | 0.252 | 0.618
36 | Cc1ccc(S(=O)(=O)N(CC(=O)O)c2cccc(Cl)c2)cc1 | 0.268 | 0.636
37 | Cc1c(Cl)c([N+](=O)[O-])nn1CC(=O)NCC1CCCO1 (configuration not stated) | 0.259 | 0.633
38 | Cc1cc(C)c2ccc(C=O)nc2c1O | 0.239 | 0.624
39 | COc1ccc(OC)c(NC(=O)CCCN2C(=O)c3ccccc3C2=O)c1 | 0.241 | 0.622
40 | CSc1nc(SC)c2c3c(sc2n1)CN(C)CC3 | 0.241 | 0.616
41 | O=C(CN1CCCCC1)NC12CC3CC(CC(C3)C1)C2 | 0.274 | 0.65
42 | COc1ccccc1CNC(=O)c1ccccc1Cl | 0.243 | 0.616
43 | Cc1nc2cc(C(=O)O)ccc2n1C1CCCCC1 | 0.251 | 0.642
44 | Cc1cccc(C)c1NC(=O)C1CCCCC1C(=O)O (configuration not stated) | 0.251 | 0.615
45 | Cc1ccc(NC(=O)c2c(O)c3ccccc3[nH]c2=O)c(C)c1 | 0.27 | 0.648
46 | N#CC1=C(N)NC(SCC(=O)Nc2ccc(Br)cc2)=C(C#N)C12CCCCC2 | 0.252 | 0.586

Row | SMILES | plate-normalized OD600 growth (temperature: 15°C, 48 h) | plate-normalized OD600 growth (temperature: 37°C, 24 h)
47 | CSc1nnc2c3ccccc3n(C)c2n1 | 0.25 | 0.624
48 | COc1cccc(NC(=O)c2c(OC)cccc2OC)c1 | 0.256 | 0.62
49 | COc1ccc(N2C(=O)CCC(C(C)=O)=C2C)cc1 | 0.266 | 0.629
50 | CC(=O)c1cccc(NC(=O)C(Cc2ccc([N+](=O)[O-])cc2)N2C(=O)c3ccccc3C2=O)c1 (configuration not stated) | 0.235 | 0.608
51 | CC(C)(C)c1ccc(-c2csc(N)n2)cc1 | 0.246 | 0.622
52 | CCOc1ccc(N2C(=O)CC(NCC#N)C2=O)cc1 (configuration not stated) | 0.254 | 0.622
53 | CC1(C)CC1C(=O)NCc1ccccc1 (configuration not stated) | 0.248 | 0.618
54 | Cc1ccc(NC(=O)[C@@H]2C3C=CC(C3)[C@@H]2C(=O)O)c(C)c1 (some centres not stated) | 0.247 | 0.648
55 | Clc1cccc(Cl)c1-c1nnc2ccc3ccccc3n12 | 0.239 | 0.598
56 | CN1CCCN(Cc2ccc([N+](=O)[O-])o2)CC1 | 0.258 | 0.607
57 | CCN(CC)/C(=N/O)c1cccc([N+](=O)[O-])c1 | 0.263 | 0.67
58 | O=C(CCCOc1ccc(Cl)cc1Cl)N1CCCC1 | 0.255 | 0.614
59 | COc1ccccc1-n1c(SCC(=O)Nc2ccc(Cl)cc2)nc(O)cc1=O | 0.306 | 0.644
60 | O=C(CCN1CCCCC1)c1ccc(Cl)cc1 | 0.237 | 0.631
61 | Cc1ccc(C(=O)O)cc1S(=O)(=O)N1CCCCC1 | 0.232 | 0.633
62 | CC1=C(C#N)C(c2ccc(N(C)C)cc2)C2=C(CCCC2=O)N1 (configuration not stated) | 0.248 | 0.638
63 | Cc1cc(C)n(C(=O)c2ccc(Cl)cc2)n1 | 0.256 | 0.636
64 | Nc1nnc(-c2ccccc2I)s1 | 0.252 | 0.603
65 | Cc1nc(SCc2ccccc2)n[nH]1 | 0.267 | 0.635
66 | O=C(NCCc1ccccc1)Nc1cccc(Cl)c1 | 0.258 | 0.583
67 | OCCN(Cc1ccccc1)CC1CC=CCC1 (configuration not stated) | 0.25 | 0.61
68 | Nc1nc(/C=C/c2ccccc2)c([N+](=O)[O-])c(=O)[nH]1 | 0.272 | 0.646
69 | O=C(NCC1CCCO1)c1ccc2c(c1)OCO2 (configuration not stated) | 0.243 | 0.615

Row | SMILES | plate-normalized OD600 growth (temperature: 15°C, 48 h) | plate-normalized OD600 growth (temperature: 37°C, 24 h)
70 | COc1ccc(NC(=O)c2ccc(I)cc2)cc1OC | 0.239 | 0.59
71 | O=C(NCCc1nc2ccccc2[nH]1)Nc1ccccc1 | 0.239 | 0.603
72 | O=C(NCC1OCCc2ccccc21)c1ccccc1 (configuration not stated) | 0.26 | 0.63
73 | Cc1cc(CO)c(O)c(CCc2ccccc2)n1 | 0.259 | 0.629
74 | NS(=O)(=O)c1ccc(-c2ccc(C=O)o2)cc1 | 0.227 | 0.612
75 | COc1ccccc1S(=O)(=O)c1c(C)cc(C)cc1C | 0.261 | 0.615
76 | Fc1ccc(CN2CCN(Cc3cccnc3)CC2)cc1 | 0.26 | 0.625
77 | COc1ccc(NCc2ccc(C)s2)cc1OC | 0.244 | 0.604
78 | c1ccc(-c2[nH]nc(-c3cccnc3)c2-c2nc3ccccc3[nH]2)cc1 | 0.247 | 0.598
79 | CSc1nc(N)c2c3c(sc2n1)CCCCC3 | 0.249 | 0.617
80 | CC(C)Cc1ccc(C(C)C(=O)NC(C)C)cc1 (configuration not stated) | 0.233 | 0.62
81 | Cc1cc(C)nc(SCC(O)COc2ccc(C(C)(C)C)cc2)n1 (configuration not stated) | 0.232 | 0.635
82 | O=C(Nn1cnnc1)c1ccccc1Cl | 0.249 | 0.609
83 | c1ccc2[nH]c(CN3CCCCC3)nc2c1 | 0.265 | 0.621
84 | O=C(c1ccco1)N1CCN(Cc2cccc([N+](=O)[O-])c2)CC1 | 0.239 | 0.638
85 | Cc1nc(N)sc1-c1csc(Nc2ccc(O)cc2)n1 | 0.239 | 0.621
86 | COc1cc2c(cc1OC)C(c1cc(OC)c(OC)c(OC)c1)N(C)CC2 (configuration not stated) | 0.244 | 0.624
87 | Cc1cc(-c2ccc(C)o2)c(C#N)c(SCC(N)=O)n1 | 0.239 | 0.607
88 | CSc1nnc(Nc2ccccc2)n1-c1ccccc1 | 0.254 | 0.607
89 | C[C@H](NC(=O)Cc1ccccc1)c1ccccc1 | 0.304 | 0.633
90 | CC(=O)c1ccc(N2CCN(Cc3ccccn3)CC2)cc1 | 0.232 | 0.604
91 | COc1ccc(-c2cn3c4ccccc4n(CCN4CCOCC4)c3n2)cc1 | 0.244 | 0.62
92 | COc1cc(CN2CCSCC2)c([N+](=O)[O-])cc1OC | 0.23 | 0.6

Row | SMILES | plate-normalized OD600 growth (temperature: 15°C, 48 h) | plate-normalized OD600 growth (temperature: 37°C, 24 h)
93 | CC(C)CN(CC(C)C)C(=O)CCN1C(=O)c2ccccc2C1=O | 0.248 | 0.638
94 | Brc1ccccc1OCCN1CCCC1 | 0.254 | 0.628
95 | CCOc1ccccc1N1CCN(C(=O)c2ccccc2C)CC1 | 0.287 | 0.646
96 | CCOc1ccc(C(C)(CC(=O)O)C(=O)O)cc1 (configuration not stated) | 0.247 | 0.629
97 | COc1ccccc1NC(=O)C1=C(C)NC(SC)=C(C#N)C1c1ccccc1Cl (configuration not stated) | 0.248 | 0.613
98 | CC(/C=C/c1ccc(N(C)C)cc1)=C\C(=O)O | 0.252 | 0.602
99 | N#Cc1ccc(Oc2cccc(C(=O)O)c2)cc1 | 0.281 | 0.641
100 | Fc1ccccc1OCCCCN1CCCCC1 | 0.214 | 0.61
101 | CC(=O)N1c2ccccc2C(C)CC12CCCCC2 (configuration not stated) | 0.24 | 0.619
102 | O=C(/C=C/c1ccc(-c2cc(Cl)ccc2Cl)o1)c1ccco1 | 0.25 | 0.612
103 | COc1cccc(CNc2ccc(F)cc2C)c1 | 0.267 | 0.622
104 | CC(C)(C)C(=O)N1CCCC1C(=O)O (configuration not stated) | 0.244 | 0.611
105 | CCN(CC)CCSc1nc2ccccc2[nH]1 | 0.232 | 0.595
106 | Brc1ccccc1CN1CCN(c2ccccn2)CC1 | 0.244 | 0.606
107 | CC(=O)Nc1ccc2nc(-c3ccc(Cl)cc3Cl)[nH]c2c1 | 0.242 | 0.628
108 | Oc1ccc(O)c(C2CC3CCC2C3)c1 (configuration not stated) | 0.245 | 0.638
109 | CN1CCCN(C2CCCCCCC2)CC1 | 0.256 | 0.603
110 | COc1ccc(S(=O)(=O)N2CCCC(C)C2)cc1 (configuration not stated) | 0.266 | 0.639
111 | COc1ccc(NC(=O)c2cccc(S(=O)(=O)Nc3cccc([N+](=O)[O-])c3)c2)cc1 | 0.249 | 0.61

Shown field by field: part of the list above
COc1ccc(OC)c(NC(=O)CCN2CCCC(C)C2)c1 (configuration not stated)
  plate-normalized OD600 growth (temperature: 15°C, 48 h): 0.257; plate-normalized OD600 growth (temperature: 37°C, 24 h): 0.614
COc1ccc(NC(=O)C2CC(=O)N(c3ccccc3C)C2)cc1 (configuration not stated)
  plate-normalized OD600 growth (temperature: 15°C, 48 h): 0.267; plate-normalized OD600 growth (temperature: 37°C, 24 h): 0.611
COC(C(=O)Nc1ccc([N+](=O)[O-])cc1)c1ccccc1 (configuration not stated)
  plate-normalized OD600 growth (temperature: 15°C, 48 h): 0.261; plate-normalized OD600 growth (temperature: 37°C, 24 h): 0.63
CC(=O)c1ccc(N2CCN(Cc3ccccn3)CC2)cc1
  plate-normalized OD600 growth (temperature: 15°C, 48 h): 0.232; plate-normalized OD600 growth (temperature: 37°C, 24 h): 0.604

Reference: the supplement of paper PMC4371806
